No constants are given. Whether binding was seen depends on the method and setting. In cells and extracts the contact can be indirect. A result given as binding can be weak or reduced; the word gives no strength. For some assays here: Tags and fused reporters may be left off the sequences shown.
Columns and labels:
Assay in all cases: split reporter; GFP protein fragment complementation assay (GFP-PFCA) in P. aeruginosa cells; NGFP fusion from pEX1.8 (IPTG), CGFP fusion from the chromosome (arabinose); scored by eye with fluorescence microscopy
[1] = biological target: T1, PA1006 (GFP-PFCA fusion in Pae) (Pseudomonas aeruginosa) (UniProt Q9I4W7)
T1 sequence: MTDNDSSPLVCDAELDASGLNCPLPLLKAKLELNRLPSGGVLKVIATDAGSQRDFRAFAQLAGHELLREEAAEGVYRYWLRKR

By UniProt entry, the sequences of proteins in these tests, tags left out. Where a name states a change or a piece, a line headed by the entry shows the natural chain unless it says otherwise.
UniProt Q9HZH8: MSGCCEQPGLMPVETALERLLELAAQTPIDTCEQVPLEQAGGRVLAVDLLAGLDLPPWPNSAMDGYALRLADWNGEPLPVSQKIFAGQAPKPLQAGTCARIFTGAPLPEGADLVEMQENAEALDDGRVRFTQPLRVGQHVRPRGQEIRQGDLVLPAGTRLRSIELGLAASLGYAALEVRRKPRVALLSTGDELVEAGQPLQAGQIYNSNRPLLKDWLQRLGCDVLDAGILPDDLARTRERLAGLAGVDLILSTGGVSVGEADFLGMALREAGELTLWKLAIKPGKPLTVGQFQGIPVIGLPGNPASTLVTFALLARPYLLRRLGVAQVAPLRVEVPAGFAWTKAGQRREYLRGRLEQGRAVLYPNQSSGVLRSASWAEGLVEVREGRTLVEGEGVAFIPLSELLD
UniProt Q9HX99: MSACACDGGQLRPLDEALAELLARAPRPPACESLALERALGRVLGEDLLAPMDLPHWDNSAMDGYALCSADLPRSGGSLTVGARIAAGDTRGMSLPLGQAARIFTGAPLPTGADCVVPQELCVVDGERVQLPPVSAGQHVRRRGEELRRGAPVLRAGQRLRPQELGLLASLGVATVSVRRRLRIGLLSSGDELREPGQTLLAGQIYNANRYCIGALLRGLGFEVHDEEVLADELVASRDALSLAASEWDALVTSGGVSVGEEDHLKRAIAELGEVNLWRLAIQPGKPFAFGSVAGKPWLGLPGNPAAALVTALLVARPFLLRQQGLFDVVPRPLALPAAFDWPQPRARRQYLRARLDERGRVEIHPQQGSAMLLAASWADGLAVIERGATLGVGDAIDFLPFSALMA
UniProt Q9HX96: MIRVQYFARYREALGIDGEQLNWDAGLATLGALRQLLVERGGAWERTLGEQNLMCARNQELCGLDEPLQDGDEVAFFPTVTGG

[2] = biological target: T2, PA1505/MoaA2 (GFP-PFCA fusion in Pae) (Pseudomonas aeruginosa) (UniProt Q9I3K7)
T2 sequence: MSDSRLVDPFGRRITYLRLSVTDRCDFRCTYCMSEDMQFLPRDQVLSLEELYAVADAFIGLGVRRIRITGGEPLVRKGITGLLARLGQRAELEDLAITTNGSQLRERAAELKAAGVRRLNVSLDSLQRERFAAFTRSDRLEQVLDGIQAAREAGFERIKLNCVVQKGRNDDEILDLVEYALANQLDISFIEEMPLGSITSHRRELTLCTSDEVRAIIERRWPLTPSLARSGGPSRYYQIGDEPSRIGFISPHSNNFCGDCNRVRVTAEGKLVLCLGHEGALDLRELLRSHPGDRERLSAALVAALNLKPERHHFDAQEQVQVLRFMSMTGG

[3] = biological target: T3, PA3918/MoaC (GFP-PFCA fusion in Pae) (Pseudomonas aeruginosa) (UniProt Q9HX95)
T3 sequence: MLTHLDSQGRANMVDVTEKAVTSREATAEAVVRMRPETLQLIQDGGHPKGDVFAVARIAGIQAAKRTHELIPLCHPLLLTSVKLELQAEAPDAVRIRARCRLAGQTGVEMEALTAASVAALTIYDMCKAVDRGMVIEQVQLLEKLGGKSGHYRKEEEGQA

[4] = biological target: T4, PA3916/MoaE (GFP-PFCA fusion in Pae) (Pseudomonas aeruginosa) (UniProt Q9HX97)
T4 sequence: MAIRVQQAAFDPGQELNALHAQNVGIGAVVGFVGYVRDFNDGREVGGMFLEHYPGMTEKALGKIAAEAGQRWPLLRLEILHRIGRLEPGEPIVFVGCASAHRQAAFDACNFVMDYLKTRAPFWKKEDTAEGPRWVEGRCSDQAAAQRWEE

[5] = biological target: PA3028/MoeA2 (GFP-PFCA fusion in Pae) (Pseudomonas aeruginosa) (UniProt Q9HZH8)
[6] = biological target: PA3914/MoeA1 (GFP-PFCA fusion in Pae) (Pseudomonas aeruginosa) (UniProt Q9HX99)
[7] = biological target: T5, PA3870/MoaA1 (GFP-PFCA fusion in Pae) (Pseudomonas aeruginosa) (UniProt Q9HXD6)
T5 sequence: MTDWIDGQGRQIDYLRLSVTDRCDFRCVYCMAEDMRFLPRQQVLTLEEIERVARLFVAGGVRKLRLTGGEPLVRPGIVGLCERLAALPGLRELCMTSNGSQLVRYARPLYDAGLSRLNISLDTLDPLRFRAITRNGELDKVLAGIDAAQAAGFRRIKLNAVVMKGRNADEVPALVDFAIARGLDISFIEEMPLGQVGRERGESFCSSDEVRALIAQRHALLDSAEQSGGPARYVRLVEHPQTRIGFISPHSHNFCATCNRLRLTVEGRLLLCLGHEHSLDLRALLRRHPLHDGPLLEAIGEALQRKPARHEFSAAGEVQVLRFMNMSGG

[8] = biological target: T6, PA3030/MobA (GFP-PFCA fusion in Pae) (Pseudomonas aeruginosa) (UniProt O68799)
T6 sequence: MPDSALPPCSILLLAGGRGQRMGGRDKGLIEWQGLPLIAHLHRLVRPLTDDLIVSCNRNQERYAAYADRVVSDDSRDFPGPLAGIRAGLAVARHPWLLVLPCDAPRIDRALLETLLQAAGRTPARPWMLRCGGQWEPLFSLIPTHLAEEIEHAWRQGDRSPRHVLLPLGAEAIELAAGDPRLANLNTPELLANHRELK

Substance: PA3668/CsdE (GFP-PFCA fusion in Pae) (Pseudomonas aeruginosa)
- binding [1]: binds

Substance: PA3917/MoaD (GFP-PFCA fusion in Pae) (from UniProt Q9HX96)
- binding [2]: binds
- binding [3]: binds
- binding [4]: binds
- binding [5]: binds
- binding [6]: binds
- binding [7]: binds
- binding [8]: binds
- binding [1]: binds

Substance: PA3914/MoeA1 (GFP-PFCA fusion in Pae) (from UniProt Q9HX99)
- binding [1]: binds

Substance: PA3028/MoeA2 (GFP-PFCA fusion in Pae) (from UniProt Q9HZH8)
- binding [1]: binds

From publication PMC3568144, “Pseudomonas aeruginosa PA1006 Is a Persulfide-Modified Protein That Is Critical for Molybdenum Homeostasis” (PLoS ONE, 2013)
